From the supplement of paper PMC10849652 come the findings set out here.

Sequences of proteins named here, by UniProt entry; tags and fusion partners are left off. A change or cut given only in a name is not applied to a line headed by its entry.
UniProt P08294: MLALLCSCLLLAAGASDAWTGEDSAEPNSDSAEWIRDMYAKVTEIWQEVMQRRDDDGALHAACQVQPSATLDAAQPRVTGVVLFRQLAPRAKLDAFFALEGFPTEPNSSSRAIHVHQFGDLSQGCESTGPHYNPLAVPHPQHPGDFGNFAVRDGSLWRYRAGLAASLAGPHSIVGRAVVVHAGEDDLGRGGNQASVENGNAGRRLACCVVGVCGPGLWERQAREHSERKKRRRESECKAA
UniProt Q9NRG4: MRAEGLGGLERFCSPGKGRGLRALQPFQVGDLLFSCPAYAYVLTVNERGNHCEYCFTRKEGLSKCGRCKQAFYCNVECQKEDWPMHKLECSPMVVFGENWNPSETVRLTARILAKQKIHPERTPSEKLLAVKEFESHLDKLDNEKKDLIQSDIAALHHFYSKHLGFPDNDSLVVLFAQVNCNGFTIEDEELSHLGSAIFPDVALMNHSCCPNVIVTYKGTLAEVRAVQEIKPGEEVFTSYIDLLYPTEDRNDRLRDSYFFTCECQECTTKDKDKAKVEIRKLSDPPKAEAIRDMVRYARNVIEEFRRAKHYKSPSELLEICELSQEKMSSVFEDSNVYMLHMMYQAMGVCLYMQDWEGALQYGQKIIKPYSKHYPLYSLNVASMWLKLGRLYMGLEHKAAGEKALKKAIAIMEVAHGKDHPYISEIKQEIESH
UniProt Q9H3E2: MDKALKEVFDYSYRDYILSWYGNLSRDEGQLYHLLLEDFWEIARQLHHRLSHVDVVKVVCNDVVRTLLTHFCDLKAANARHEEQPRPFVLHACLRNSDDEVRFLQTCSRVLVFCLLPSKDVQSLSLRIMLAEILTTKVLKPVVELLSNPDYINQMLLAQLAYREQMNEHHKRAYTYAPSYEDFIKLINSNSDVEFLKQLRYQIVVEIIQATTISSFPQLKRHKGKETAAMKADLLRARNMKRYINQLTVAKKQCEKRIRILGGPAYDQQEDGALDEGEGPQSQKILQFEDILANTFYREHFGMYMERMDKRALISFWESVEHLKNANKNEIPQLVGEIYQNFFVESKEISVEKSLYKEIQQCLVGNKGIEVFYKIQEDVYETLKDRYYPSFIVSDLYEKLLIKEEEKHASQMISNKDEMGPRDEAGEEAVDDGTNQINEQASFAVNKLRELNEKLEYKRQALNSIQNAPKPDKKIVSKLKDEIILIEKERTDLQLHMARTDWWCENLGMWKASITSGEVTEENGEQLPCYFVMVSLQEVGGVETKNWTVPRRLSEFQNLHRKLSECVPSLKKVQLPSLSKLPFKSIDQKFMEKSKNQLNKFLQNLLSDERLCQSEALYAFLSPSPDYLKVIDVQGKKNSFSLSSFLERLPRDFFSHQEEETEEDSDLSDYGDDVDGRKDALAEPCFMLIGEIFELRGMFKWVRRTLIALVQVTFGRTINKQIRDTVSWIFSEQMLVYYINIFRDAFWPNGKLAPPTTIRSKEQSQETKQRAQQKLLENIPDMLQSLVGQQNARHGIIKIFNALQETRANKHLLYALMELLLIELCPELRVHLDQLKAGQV
UniProt P0C7P3: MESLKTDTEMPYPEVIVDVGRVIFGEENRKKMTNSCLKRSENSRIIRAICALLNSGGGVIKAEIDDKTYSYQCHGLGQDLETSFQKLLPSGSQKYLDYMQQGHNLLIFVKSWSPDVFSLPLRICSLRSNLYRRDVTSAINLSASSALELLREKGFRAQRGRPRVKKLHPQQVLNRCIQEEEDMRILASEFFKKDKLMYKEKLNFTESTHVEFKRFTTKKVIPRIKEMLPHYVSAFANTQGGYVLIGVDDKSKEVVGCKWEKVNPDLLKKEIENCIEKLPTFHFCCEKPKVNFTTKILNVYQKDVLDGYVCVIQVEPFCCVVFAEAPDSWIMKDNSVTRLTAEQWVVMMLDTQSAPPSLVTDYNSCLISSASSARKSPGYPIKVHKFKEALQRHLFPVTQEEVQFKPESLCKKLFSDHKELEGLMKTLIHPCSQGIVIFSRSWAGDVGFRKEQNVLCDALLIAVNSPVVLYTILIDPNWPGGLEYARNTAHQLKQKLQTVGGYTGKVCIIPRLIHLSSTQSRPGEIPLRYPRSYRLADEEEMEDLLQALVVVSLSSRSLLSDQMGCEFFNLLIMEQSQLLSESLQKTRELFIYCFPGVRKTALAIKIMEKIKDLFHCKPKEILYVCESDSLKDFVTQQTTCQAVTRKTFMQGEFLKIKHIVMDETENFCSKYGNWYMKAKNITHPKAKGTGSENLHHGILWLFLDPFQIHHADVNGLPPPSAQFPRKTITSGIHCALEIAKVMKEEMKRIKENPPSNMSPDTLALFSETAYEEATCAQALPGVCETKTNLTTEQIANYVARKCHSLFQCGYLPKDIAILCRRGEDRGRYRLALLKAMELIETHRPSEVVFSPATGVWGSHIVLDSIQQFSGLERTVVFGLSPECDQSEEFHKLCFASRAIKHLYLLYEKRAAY
UniProt O75971: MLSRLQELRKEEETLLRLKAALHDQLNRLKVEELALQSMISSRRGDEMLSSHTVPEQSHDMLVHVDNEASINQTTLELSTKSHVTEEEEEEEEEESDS
UniProt Q9BT81: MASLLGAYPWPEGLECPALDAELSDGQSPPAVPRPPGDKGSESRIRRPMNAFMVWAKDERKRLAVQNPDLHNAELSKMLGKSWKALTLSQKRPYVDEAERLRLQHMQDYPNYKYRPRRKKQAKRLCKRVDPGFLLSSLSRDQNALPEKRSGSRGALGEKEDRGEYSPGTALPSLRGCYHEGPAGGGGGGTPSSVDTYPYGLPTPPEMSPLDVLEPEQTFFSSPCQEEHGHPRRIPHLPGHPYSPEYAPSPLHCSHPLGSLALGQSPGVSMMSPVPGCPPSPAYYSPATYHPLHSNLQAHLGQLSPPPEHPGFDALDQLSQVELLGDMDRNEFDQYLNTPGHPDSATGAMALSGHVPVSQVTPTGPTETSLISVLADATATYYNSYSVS
UniProt Q13424: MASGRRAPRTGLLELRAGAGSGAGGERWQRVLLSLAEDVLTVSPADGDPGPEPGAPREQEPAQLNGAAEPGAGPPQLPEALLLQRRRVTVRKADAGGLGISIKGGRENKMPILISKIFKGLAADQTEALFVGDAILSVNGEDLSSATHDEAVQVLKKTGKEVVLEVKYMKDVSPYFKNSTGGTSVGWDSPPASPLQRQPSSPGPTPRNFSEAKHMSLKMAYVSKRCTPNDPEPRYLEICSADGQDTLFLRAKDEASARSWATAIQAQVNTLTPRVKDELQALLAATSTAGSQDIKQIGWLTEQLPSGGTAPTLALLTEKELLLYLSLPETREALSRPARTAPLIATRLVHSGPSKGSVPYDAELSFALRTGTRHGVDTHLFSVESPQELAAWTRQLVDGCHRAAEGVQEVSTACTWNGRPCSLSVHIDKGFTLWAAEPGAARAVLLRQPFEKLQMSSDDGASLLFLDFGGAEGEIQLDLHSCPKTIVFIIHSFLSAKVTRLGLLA
UniProt Q9UPR3: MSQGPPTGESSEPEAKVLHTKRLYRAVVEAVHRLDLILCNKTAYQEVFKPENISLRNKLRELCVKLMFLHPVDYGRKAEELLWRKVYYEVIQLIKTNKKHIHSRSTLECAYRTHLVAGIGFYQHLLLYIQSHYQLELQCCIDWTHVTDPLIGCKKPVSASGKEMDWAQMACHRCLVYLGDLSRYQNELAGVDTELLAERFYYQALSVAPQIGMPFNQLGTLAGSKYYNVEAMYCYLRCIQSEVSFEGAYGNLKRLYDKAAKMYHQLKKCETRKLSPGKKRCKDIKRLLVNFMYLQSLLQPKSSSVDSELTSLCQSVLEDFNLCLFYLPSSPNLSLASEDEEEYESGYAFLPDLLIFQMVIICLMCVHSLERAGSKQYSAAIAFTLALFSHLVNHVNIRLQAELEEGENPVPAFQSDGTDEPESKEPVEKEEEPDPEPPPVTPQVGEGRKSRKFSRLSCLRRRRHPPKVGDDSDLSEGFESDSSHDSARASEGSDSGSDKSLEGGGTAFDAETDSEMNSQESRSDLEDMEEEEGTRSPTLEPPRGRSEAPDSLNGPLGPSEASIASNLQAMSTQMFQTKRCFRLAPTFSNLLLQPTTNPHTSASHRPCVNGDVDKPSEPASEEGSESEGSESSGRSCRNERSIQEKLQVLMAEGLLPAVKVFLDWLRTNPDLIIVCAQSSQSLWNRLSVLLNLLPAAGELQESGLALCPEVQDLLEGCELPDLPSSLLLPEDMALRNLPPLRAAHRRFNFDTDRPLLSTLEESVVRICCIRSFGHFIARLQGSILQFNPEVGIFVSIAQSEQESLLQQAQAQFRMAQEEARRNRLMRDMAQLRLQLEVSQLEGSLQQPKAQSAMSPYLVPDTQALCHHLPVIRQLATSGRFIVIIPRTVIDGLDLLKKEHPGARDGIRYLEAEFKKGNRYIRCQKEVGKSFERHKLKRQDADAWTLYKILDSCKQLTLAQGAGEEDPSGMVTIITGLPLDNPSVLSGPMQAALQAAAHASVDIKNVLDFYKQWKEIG
UniProt P58511: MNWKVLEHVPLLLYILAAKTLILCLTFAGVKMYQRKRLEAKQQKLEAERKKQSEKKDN
UniProt P02814: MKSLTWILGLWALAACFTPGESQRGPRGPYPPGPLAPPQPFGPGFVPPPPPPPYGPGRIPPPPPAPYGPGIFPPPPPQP
UniProt Q86US8: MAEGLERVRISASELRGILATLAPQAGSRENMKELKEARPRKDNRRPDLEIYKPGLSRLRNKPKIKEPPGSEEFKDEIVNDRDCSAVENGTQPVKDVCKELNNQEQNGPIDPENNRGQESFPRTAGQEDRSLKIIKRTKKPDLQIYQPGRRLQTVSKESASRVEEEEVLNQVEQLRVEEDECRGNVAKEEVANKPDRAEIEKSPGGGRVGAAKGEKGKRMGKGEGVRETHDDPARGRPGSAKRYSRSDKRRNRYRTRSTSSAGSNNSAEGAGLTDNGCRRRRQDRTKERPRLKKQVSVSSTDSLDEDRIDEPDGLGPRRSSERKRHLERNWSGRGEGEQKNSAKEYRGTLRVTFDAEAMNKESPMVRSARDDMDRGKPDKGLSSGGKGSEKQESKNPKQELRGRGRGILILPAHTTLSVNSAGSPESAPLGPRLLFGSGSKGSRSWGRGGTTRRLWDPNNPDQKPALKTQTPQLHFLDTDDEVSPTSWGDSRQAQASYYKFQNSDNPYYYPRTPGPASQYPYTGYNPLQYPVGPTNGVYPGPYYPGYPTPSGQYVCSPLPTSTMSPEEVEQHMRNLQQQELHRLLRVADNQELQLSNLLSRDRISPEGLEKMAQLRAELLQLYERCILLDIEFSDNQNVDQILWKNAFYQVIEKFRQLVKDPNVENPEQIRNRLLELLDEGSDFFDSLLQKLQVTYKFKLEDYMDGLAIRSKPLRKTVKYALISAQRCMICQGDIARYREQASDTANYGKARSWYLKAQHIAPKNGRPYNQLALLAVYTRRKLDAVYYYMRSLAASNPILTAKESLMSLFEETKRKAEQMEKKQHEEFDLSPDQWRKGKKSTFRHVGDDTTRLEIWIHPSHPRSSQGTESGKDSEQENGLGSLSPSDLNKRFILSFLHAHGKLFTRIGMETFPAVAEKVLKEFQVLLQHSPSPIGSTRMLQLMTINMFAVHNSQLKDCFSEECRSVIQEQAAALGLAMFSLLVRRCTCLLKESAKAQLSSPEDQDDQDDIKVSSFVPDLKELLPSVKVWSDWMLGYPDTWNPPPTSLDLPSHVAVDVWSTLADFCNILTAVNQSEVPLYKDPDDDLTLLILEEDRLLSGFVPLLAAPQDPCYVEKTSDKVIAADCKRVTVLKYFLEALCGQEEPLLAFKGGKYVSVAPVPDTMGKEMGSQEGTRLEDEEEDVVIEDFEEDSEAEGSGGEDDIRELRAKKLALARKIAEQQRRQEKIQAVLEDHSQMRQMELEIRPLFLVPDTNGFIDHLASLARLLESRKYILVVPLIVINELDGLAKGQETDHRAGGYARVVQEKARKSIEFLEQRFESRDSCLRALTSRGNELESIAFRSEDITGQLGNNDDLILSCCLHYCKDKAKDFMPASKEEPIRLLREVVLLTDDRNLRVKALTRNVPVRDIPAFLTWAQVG
UniProt Q86UD5: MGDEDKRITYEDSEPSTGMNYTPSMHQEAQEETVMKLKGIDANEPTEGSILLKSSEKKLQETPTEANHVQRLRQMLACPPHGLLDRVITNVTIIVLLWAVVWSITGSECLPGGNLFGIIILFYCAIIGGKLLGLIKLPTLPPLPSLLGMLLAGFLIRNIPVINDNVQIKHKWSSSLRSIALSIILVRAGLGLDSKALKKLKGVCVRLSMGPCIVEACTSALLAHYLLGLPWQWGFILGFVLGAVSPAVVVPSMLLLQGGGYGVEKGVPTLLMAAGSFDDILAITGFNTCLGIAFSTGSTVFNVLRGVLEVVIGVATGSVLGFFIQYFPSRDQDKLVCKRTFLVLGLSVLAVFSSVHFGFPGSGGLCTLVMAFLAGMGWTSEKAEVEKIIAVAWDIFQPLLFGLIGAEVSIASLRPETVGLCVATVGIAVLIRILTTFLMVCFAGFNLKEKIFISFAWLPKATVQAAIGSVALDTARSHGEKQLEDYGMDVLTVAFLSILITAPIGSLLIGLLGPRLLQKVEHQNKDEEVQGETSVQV

This is one part of the list.

Compound in one experiment: CC[C@@H]1C(=O)N(C)c2cnc(Nc3ccc(C(=O)N[C@H]4CC[C@H](N5CCN(CC6CC6)CC5)CC4)cc3OC)nc2N1C(C)C [volasertib]
The experiment can be described thus: log2 fold change, soluble protein after heating vs DMSO (PISA); higher = thermal stabilisation; K562 cells, 10 uM, 30 min; active = over 0.2 and 3.5 SD of the protein, either way, in both replicates (recomputed). The gist of the method:
(§1)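 K562 cells at 2×10^6 cells/mL were treated for 30 min with 10 μM compound, and aliquots were heated for 3 min over 48°C-58°C before pooling. Extraction used PBS with 0.5% NP-40 at 4°C, and soluble protein was the supernatant after 21,000xg for 90 min, measured by TMTpro 16plex LC-MS/MS with channel sums equalised. Thermal stability values, relative to control samples and from duplicates, are log2 fold changes.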
Consider SOD3 (UniProt P08294), for which the log2 fold change is inactive: 0.313. Still for that read-out and setting: next, SMTN isoform 6 (UniProt P53814): inactive: -0.23; SOX5 (UniProt P35711): inactive: -0.082; SLC8B1 (UniProt Q6J4K2): inactive: 0.156. Still for that read-out and setting: next, SMYD2 (UniProt Q9NRG4): inactive: -0.489. Still for that read-out and setting: next, SNX25 (UniProt Q9H3E2): inactive: -0.716; SLFN14 (UniProt P0C7P3): inactive: 0.424; SMPD4 isoform 2 (UniProt Q9NXE4): inactive: -0.234. Take SMAD3 (UniProt P84022): the log2 fold change was inactive: -0.531. Same read-out and setting: next, SNAPC5 (UniProt O75971): inactive: 0.083. SOX6 (UniProt P35712): the log2 fold change was inactive: -0.246.

In the case of SMPD1 (UniProt P17405), the log2 fold change was inactive: -0.136.

Turning to SMG9 (UniProt Q9H0W8), the log2 fold change was inactive: -0.072. On the same count and under the same terms, next, SOX7 isoform 2 (UniProt Q9BT81): inactive: 0.257.

Take SNTA1 (UniProt Q13424): the log2 fold change was inactive: -0.08. Same read-out and setting: next, SMG5 (UniProt Q9UPR3): inactive: -0.32.

Compound in a further experiment: CC[C@H](C)N1C=C(C2=C(C=C(C=C21)C3=CN=C(C=C3)N4CCNCC4)C(=O)NCC5=C(C=C(NC5=O)C)C)C
The description is as above. In short, it runs like this:
as §1
On to SMIM11A (UniProt P58511), for which the log2 fold change is inactive: -0.125. The same measure, in the same setting: next, SOX5 (UniProt P35711): inactive: 0.014. In the case of SMR3B (UniProt P02814), the log2 fold change was inactive: 0.83. Same read-out and setting: next, SNX25 (UniProt Q9H3E2): inactive: -0.11; SMAD5 (UniProt Q99717): inactive: 0.081.

Turning to SLFN14 (UniProt P0C7P3), the log2 fold change is inactive: -0.015. On the same count and under the same terms, next, SNAPC5 (UniProt O75971): inactive: -0.03; SOX7 isoform 2 (UniProt Q9BT81): inactive: -0.278. Same read-out and setting: next, SNTA1 (UniProt Q13424): inactive: -0.006; SMG6 (UniProt Q86US8): inactive: -0.258; SMG5 (UniProt Q9UPR3): inactive: 0.077. Regarding SORBS3 (UniProt O60504), the log2 fold change is inactive: 0.09.

Compound in another experiment: CC[C@H](C)[C@@H](C(=O)N[C@@H]([C@@H](C)O)C(=O)N[C@@H](CC(C)C)C(=O)[C@]1(CO1)C)NC(=O)[C@H]([C@@H](C)CC)N(C)C(=O)C [epoxomicin]
Described as above. In short, it runs like this: as §1
Turning to SLC9B2 (UniProt Q86UD5), the log2 fold change was inactive: -0.07.

As for SNX30 (UniProt Q5VWJ9), the log2 fold change was inactive: 0.088. On the same count and under the same terms, next, SMTN isoform 6 (UniProt P53814): inactive: -0.095; SNAP47 (UniProt Q5SQN1): inactive: 0.16; SMYD2 (UniProt Q9NRG4): inactive: 0.035.

With SMAD5 (UniProt Q99717), the log2 fold change was inactive: 0.082. Turning to SLFN14 (UniProt P0C7P3), the log2 fold change is inactive: -0.26.

On to SNAPC5 (UniProt O75971), for which the log2 fold change was inactive: 0.04. On the same count and under the same terms, next, SMPDL3A (UniProt Q92484): inactive: -0.069; SMG9 (UniProt Q9H0W8): inactive: -0.02. The same measure, in the same setting: next, SOX7 isoform 2 (UniProt Q9BT81): inactive: -0.183; SNX18 (UniProt Q96RF0): inactive: 0.08.

SNTA1 (UniProt Q13424): the log2 fold change is inactive: 0.03. Consider SNX13 (UniProt Q9Y5W8), for which the log2 fold change is inactive: 0.061. The same measure, in the same setting: next, SMG6 (UniProt Q86US8): inactive: -0.142. Still for that read-out and setting: next, SMG5 (UniProt Q9UPR3): inactive: -0.066. On to SORBS3 (UniProt O60504), for which the log2 fold change was inactive: 0.
